According to paper PMC7876461:
The exact form of at least one protein or probe is not confirmed. Results from cells or extracts need not show a direct contact. For some of these results: A negative result means that nothing was seen under these conditions. For some of these results: Weaker means in comparison with the reference protein, sequence or condition of that experiment.

Sequences of proteins named here, by UniProt entry; tags and fusion partners are left off. A change or cut given only in a name is not applied to a line headed by its entry.
UniProt P19793: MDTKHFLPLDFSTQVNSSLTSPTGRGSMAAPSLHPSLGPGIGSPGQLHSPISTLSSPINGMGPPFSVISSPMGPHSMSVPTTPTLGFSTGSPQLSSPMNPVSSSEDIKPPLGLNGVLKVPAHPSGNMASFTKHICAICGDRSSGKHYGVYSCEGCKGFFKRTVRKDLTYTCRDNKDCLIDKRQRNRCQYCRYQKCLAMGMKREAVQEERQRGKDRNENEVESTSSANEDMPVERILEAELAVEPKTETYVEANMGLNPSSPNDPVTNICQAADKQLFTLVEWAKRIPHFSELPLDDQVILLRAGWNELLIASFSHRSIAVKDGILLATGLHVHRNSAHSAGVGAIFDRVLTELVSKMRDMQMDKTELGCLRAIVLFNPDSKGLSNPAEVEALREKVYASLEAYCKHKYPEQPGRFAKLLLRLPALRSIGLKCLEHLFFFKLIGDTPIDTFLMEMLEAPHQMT

Columns and labels:
RXRA (Homo sapiens) [1] = molecular target: RXRA (Homo sapiens) (UniProt P19793); assay: EMSA, shift-western; details: LightShift EMSA binding buffer with poly(dI-dC), glycerol, NP-40, MgCl2 (stocks 1 ug/ul, 50%, 1%, 100 mM; final not stated), 10 ug nuclear extract; protein in an extract
RXRA (Homo sapiens) [2] = molecular target: RXRA (Homo sapiens) (UniProt P19793); assay: competition with a labelled probe; details: LightShift EMSA binding buffer with poly(dI-dC), glycerol, NP-40, MgCl2 (stocks 1 ug/ul, 50%, 1%, 100 mM; final not stated), 10 ug nuclear extract, protein in an extract
RXRA (Homo sapiens) [3] = molecular target: RXRA (Homo sapiens) (UniProt P19793); assay: EMSA; details: band diminished, legend: no interaction with mutant; LightShift EMSA binding buffer with poly(dI-dC), glycerol, NP-40, MgCl2 (stocks 1 ug/ul, 50%, 1%, 100 mM; final not stated), 10 ug nuclear extract; protein in an extract

## GCCGGAGGAGGGGGCCCCGGACACACACACACACACACCC (double strand) [HES1 promoter WT probe (-1317 to -1278)]
RXRA (Homo sapiens) [1]
  binding result: binds

## GCCGGAGGAGGGGGCCCCGGACACACACACACACACACACCC (double strand) [HES1 mutant unlabeled competitor]
RXRA (Homo sapiens) [2]; unlabeled mutant (200-fold molar) vs biotin WT probe, band not changed
  binding result: no binding

## GCCGGAGGAGGGGGCCCCGGACACACACACACACACACCC (double strand) [HES1 WT unlabeled competitor]
RXRA (Homo sapiens) [2]; 200-fold molar unlabeled vs biotin WT probe, band diminished
  binding result: binds

## GCCGGAGGAGGGGGCCCCGGACACACACACACACACACACCC (double strand) [HES1 promoter mutant probe (c.-1279_-1278insAC)]
RXRA (Homo sapiens) [3]
  binding result: binds more weakly
